Entries after “also recorded” stand apart in the source; their conditions may differ. Some entries repeat one wording, which the source may state once for all of them.
Columns and labels:
[1] = test system: antibodies in human plasma; assay: Peptide ELISA screening of the apo B peptide library with pooled human plasma (AHP/NHP, CHD/control); format: binding; set-up: key to Group of antibody response to the peptide (Table 1, groups A-G): High levels of IgG antibodies to MDA-modified peptides; B: High levels of IgM antibodies, but no difference between native and MDA-modified peptides; C: High levels of IgG antibodies, but no difference between native and MDA-modified peptides; High levels of IgG antibodies to MDA-modified peptides and at least twice as much antibodies in the NHP-pool as compared to the AHP-pool; E: High levels of IgM antibodies to MDA-modified peptides and at least twice as much antibodies in the NHP-pool as compared to the AHP-pool; F: High levels of IgG antibodies, but no difference between intact and MDA-modified peptides but at least twice as much antibodies in the AHP-pool as compared to the NHP-pool; No level of IgG or IgM antibodies; settings: for Group of antibody response to the peptide (Table 1, groups A-G): pooled human plasma AHP and NHP diluted 1/100, native and MDA-modified peptides, IgG or IgM; for antibody titers, control plasma compared to plasma from CHD subjects: pooled plasma from healthy controls vs pooled CHD plasma (n=10); for antibody response in the initial antibody screening (in words): pooled human plasma, native vs MDA modified form
[2] = test system: antibodies against MDA-modified peptide sequences in apo B-100; assay: Prospective nested case control study (78 cases, 149 controls): antibody levels against MDA-modified apo B-100 peptides, carotid IMT and CHD; set-up: species or system human; settings: for antibody levels in cases as compared to controls, younger age group: MDA-modified peptides, under the median age (61 years)

| Substance | Group of antibody response to the peptide (Table 1, groups A-G) [1] | antibody titers, control plasma compared to plasma from CHD subjects [1] | other results |
| --- | --- | --- | --- |
| ALLVPPETEEAKQVLFLDTV [Peptide 10] | F. NHS/AHP, IgG-ak < 0.5, no MDA-difference | higher in plasma from CHD patients | – |
| ATRFKHLRKYTYNYQAQSSS [Peptide 2] | G. | – | antibody response in the initial antibody screening (in words) [1]: no antibody response |
| CTGDEDYTYKIKRVIGNMGQ [Peptide 31] | E. NHS/AHP, IgM-ak > 2, MDA-difference | – | – |
| DGSLRHKFLDSNIKFSHVEK [Peptide 94] | B. High IgM, no MDA-difference | – | – |
| DMTFSKQNALLRSEYQADYE [Peptide 105] | B. High IgM, no MDA-difference | – | – |
| EATLQRIYSLWEHSTKNHLQ [Peptide 236] | E. NHS/AHP, IgM-ak > 2, MDA-difference | at least twice as high | – |
| EEEMLENVSLVCPKDATRFK [Peptide 1] | D. NHS/AHP, IgG-ak > 2, MDA-difference | at least twice as high | antibody response in the initial antibody screening (in words) [1]: higher IgG or IgM antibody response to MDA modified form than native peptide, respectively |
| EVDVLTKYSQPEDSLIPFFE [Peptide 252] | D. NHS/AHP, IgG-ak > 2, MDA-difference | at least twice as high | – |
| FKSSVITLNTNAELFNQSDI [Peptide 222] | F. NHS/AHP, IgG-ak < 0.5, no MDA-difference | higher in plasma from CHD patients | – |
| FLDTVYGNCSTHFTVKTRKG [Peptide 11] | A. High IgG, MDA-difference | – | – |
| FPDLGQEVALNANTKNQKIR [Peptide 240] | F. NHS/AHP, IgG-ak < 0.5, no MDA-difference | higher in plasma from CHD patients | – |
| GHSVLTAKGMALFGEGKAEF [Peptide 199] | F. NHS/AHP, IgG-ak < 0.5, no MDA-difference | higher in plasma from CHD patients | – |
| GNMGQTMEQLTPELKSSILK [Peptide 32] | E. NHS/AHP, IgM-ak > 2, MDA-difference | – | antibody levels in cases as compared to controls, younger age group [2]: increased antibody levels |
| GSTSHHLVSRKSISAALEHK [Peptide 129] | D. NHS/AHP, IgG-ak > 2, MDA-difference | – | – |
| HTFLIYITELLKKLQSTTVM [Peptide 301] | E. NHS/AHP, IgM-ak > 2, MDA-difference | at least twice as high | antibody response in the initial antibody screening (in words) [1]: higher IgG or IgM antibody response to MDA modified form than native peptide, respectively |
| IALDDAKINFNEKLSQLQTY [Peptide 143] | C. High IgG, no MDA difference | – | – |
| IEIGLEGKGFEPTLEALFGK [Peptide 45] | F. NHS/AHP, IgG-ak < 0.5, no MDA-difference | higher in plasma from CHD patients | antibody levels in cases as compared to controls, younger age group [2]: increased antibody levels |
| IENIDFNKSGSSTASWIQNV [Peptide 148] | D. NHS/AHP, IgG-ak > 2, MDA-difference | at least twice as high | – |
| IQKAAIQALRKMEPKDKDQE [Peptide 34] | E. NHS/AHP, IgM-ak > 2, MDA-difference | – | – |

| Substance | Group of antibody response to the peptide (Table 1, groups A-G) [1] | antibody titers, control plasma compared to plasma from CHD subjects [1] | other results |
| --- | --- | --- | --- |
| IREVTQRLNGEIQALELPQK [Peptide 162] | D. NHS/AHP, IgG-ak > 2, MDA-difference | at least twice as high | – |
| KGTYGLSCQRDPNTGRLNGE [Peptide 99] | B. High IgM, no MDA-difference | – | – |
| KLVKEALKESQLPTVMDFRK [Peptide 40] | B. High IgM, no MDA-difference | – | – |
| KTTKQSFDLSVKAQYKKNKH [Peptide 210] | C. High IgG, no MDA difference | – | – |
| LKFVTQAEGAKQTEATMTFK [Peptide 68] | B. High IgM, no MDA-difference | – | – |
| LLDIANYLMEQIQDDCTGDE [Peptide 30] | E. NHS/AHP, IgM-ak > 2, MDA-difference | – | – |
| MDA 74: peptide 74 modified by 0.5 M MDA (malone dialdehyde) (VISIPRLQAEARSEILAHWS) | – | – | IgM levels against MDA peptide, cases ([2]; 78 cases, median): 0.178 absorbance units; IgM levels against MDA peptide, controls ([2]; 149 controls, median): 0.258 absorbance units |
| MKVKIIRTIDQMQNSELQWP [Peptide 177] | B. High IgM, no MDA-difference | – | – |
| NLIGDFEVAEKINAFRAKVH [Peptide 154] | F. NHS/AHP, IgG-ak < 0.5, no MDA-difference | higher in plasma from CHD patients | – |
| PQCSTHILQWLKRVHANPLL [Peptide 25] | A. High IgG, MDA-difference | – | – |
| RLNGESNLRFNSSYLQGTNQ [Peptide 100] | – | at least twice as high | Group of antibody response to the peptide (Table 1, groups A-G) ([1]; listed as P 100): B. High IgM, no MDA-difference; also recorded: E. NHS/AHP, IgM-ak > 2, MDA-difference |
| SGASMKLTTNGRFREHNAKF [Peptide 111] | F. NHS/AHP, IgG-ak < 0.5, no MDA-difference | higher in plasma from CHD patients | – |
| SLNSHGLELNADILGTDKIN [Peptide 107] | E. NHS/AHP, IgM-ak > 2, MDA-difference | at least twice as high | – |
| SLTSTSDLQSGIIKNTASLK [Peptide 102] | B. High IgM, no MDA-difference | – | – |
| SSILKCVQSTKPSLMIQKAA [Peptide 33] | E. NHS/AHP, IgM-ak > 2, MDA-difference | – | – |
| TASLKYENYELTLKSDTNGK [Peptide 103] | B. High IgM, no MDA-difference | – | – |
| TYISDWWTLAAKNLTDFAEQ [Peptide 169] | E. NHS/AHP, IgM-ak > 2, MDA-difference | at least twice as high | – |
| VISIPRLQAEARSEILAHWS [Peptide 74] | A. High IgG, MDA-difference | – | antibody levels in cases as compared to controls, younger age group [2]: decreased antibody levels |
| WIQNVDTKYQIRIQIQEKLQ [Peptide 149] | E. NHS/AHP, IgM-ak > 2, MDA-difference | at least twice as high | – |
